Assay results reported in patent US20250275988A1, “FORMULATION FOR TREATING URINARY SYSTEM DISORDERS” (WATERSHED MEDICAL, INC., priority 2022, published 2025).

Assay: density and max drug loading of antimicrobial agents considered for carrier particles
Type: physicochemical
Details: Table 7

## CN(C)c1cc(NC(=O)CNC(C)(C)C)c(O)c2c1C[C@H]1C[C@H]3[C@H](N(C)C)C(O)=C(C(N)=O)C(=O)[C@@]3(O)C(O)=C1C2=O [Tigecycline]
  Max Drug Loading: 20%
